The record followed here is patent US20090004749, “METHOD AND KIT FOR DETERMINING THE AMOUNT OF DNA BINDING PROTEIN” (SYSMEX CORPORATION, published 2009).

For at least one entry, the source does not settle the construct or the ends of the probe. Where cells or extracts were used, other partners may take part. For part of these data: A negative result means that nothing was seen under these conditions.

Series [1] deals with NF-κB (endogenous, TNF-α-activated HeLa nuclear extract) (Homo sapiens). Briefly: competition with a labelled probe. The note with it: FCS, poly(dIdC), protein in an extract, folded or branched DNA.
Series [2] has the same test system. In words: binding assay. The conditions noted are these: FCS; HeLa nuclear extract with TNF-α; poly(dIdC); protein in an extract; label: 5'-TAMRA; folded or branched DNA.

With “CAGGCGCGTTTTGACCATCTTAAAAAAGATGGTCAAAACGCGCCTG [Pn]”, the binding result in series [1] (50 nM Pn does not compete) is listed as “no binding”.
Regarding “AGTTGAGGGGACTTTCCCAGGCAAAAGCCTGGGAAAGTCCCCTCAACT [Pw]”, the binding result in series [1] (50 nM Pw competes with 1 nM Pfw, variant of Pfw) is listed as “binds”.
For “AGTTGAGGGGACTTTCCCAGGCAAAAGCCTGGGAAAGTCCCCTCAACT [Pfw]”, the binding result in series [2] is given as “binds”.
